Source: patent US20120045764A1, “METHOD OF EXPANDING HUMAN HEPATOCYTES IN VIVO” (priority 2009, published 2012)
At least one structure is not confirmed: it was looked up by name or label, or the drawing left a doubt.

System: human drug metabolism genes
Assay: Induction of mRNAs of drug metabolism genes in cultured hepatocytes from humanized mice (real-time PCR)
Type: cell-based
Conditions: cultured hepatocytes from chimeric mice, mRNA
Procedure: Cultures of isolated hepatocytes were established and exposed to prototypical inducers of the cytochrome P450 genes. […]. In addition to the mRNA expression levels of human drug metabolism genes, the enzymatic activity of the human CYP1A and 3A family members were measured. Ethoxyresorufin-O-deethylase activity (EROD) is known to be mediated by CYP1A1 and 1A2 in human liver. […] Thus, hepatocytes from repopulated FRG livers were indistinguishable from normal human adult hepatocytes in these standard drug metabolism assays.

CO[C@H]1/C=C/O[C@@]2(C)Oc3c(C)c(O)c4c(O)c(c(/C=N/N5CCN(C)CC5)c(O)c4c3C2=O)NC(=O)/C(C)=C\C=C\[C@H](C)[C@H](O)[C@@H](C)[C@@H](O)[C@@H](C)[C@H](OC(C)=O)[C@@H]1C [rifampicin]
pattern of genes induced: as expected from normal human cells
